Several values for one entry are separate records, joined by “and”; a condition that tells them apart may be missing. Equal values may be shown once. The list shows a part of the results. Single values are uncertain, as repeats are few or missing.

The subject of this assay is Geomyces destructans. Briefly: growth inhibition relative to DMSO control; higher = stronger growth inhibition. Conditions: 10 µM; 15 °C; incubation time 10 days.
In the case of `O=C1C=C2C(=CCOC2O)O1` (centres undefined), the growth inhibition is -20.9%.

As for `COc1ccc(CCN2CCC(Nc3nc4ccccc4n3Cc3ccc(F)cc3)CC2)cc1`, the growth inhibition is -12.1%.

As to `CC1=C2[C@H]3OC(=O)[C@@H](C)[C@@H]3CC[C@@]2(C)C=CC1=O`, the growth inhibition was -3.62%.

`OCC(O)Cc1ccc2c(c1)OCO2` (centres undefined): the growth inhibition is -26.1%.

Regarding `CCC(N)C(O)c1ccc(O)c(O)c1` (centres undefined), the growth inhibition is -9.86%.

For the compound `COC1C(O)C(O[C@H]2CC[C@]3(C=O)C4C(CC[C@]3(O)C2)[C@@]2(O)CC[C@H](C3=CC(=O)OC3)[C@@]2(C)C[C@H]4OC(C)=O)OC(C)C1OC(C)=O` (some centres undefined), the growth inhibition was -15.2%.

`CC1(C)C(C=C(Cl)Cl)C1C(=O)OC(C#N)c1cccc(Oc2ccccc2)c1` (centres undefined): the growth inhibition was 72.6%.

Regarding `O=C1CCCN1CC#CCN1CCCC1`, the growth inhibition was -9.77% and -9.53%.

On to `CO[C@@H]1C[C@@H](C[C@H]2CC[C@H](C)[C@H]([C@@H](C)C(=O)O)O2)O[C@]2(O[C@](C)([C@H]3CC[C@@](C)([C@@H]4O[C@@H]([C@H]5O[C@@](O)(CO)[C@H](C)C[C@@H]5C)C[C@@H]4C)O3)C[C@H]2C)[C@@H]1C`, for which the growth inhibition is -7.53%.

Take `COc1ccc(Cc2nccc3cc(OC)c(OC)cc23)cc1OC`: the growth inhibition was -25.4%.

Take `COc1cc2c(c(OC)c1OC)-c1ccc(=O)c(O)cc1[C@@H](NC(C)=O)CC2`: the growth inhibition is -9.28%.

For `CNC1=Nc2ccc(Cl)cc2C(c2ccccc2)=[N+]([O-])C1`, the growth inhibition is -6.42%.

In the case of `CCC1(CC)C(=O)C=CNC1=O`, the growth inhibition was -5.2%.

`COc1cc2c(cc1OC)[C@H](C)NCC2`: the growth inhibition is -7.21%.

Regarding `CCOCN(C(=O)CCl)c1c(C)cccc1CC`, the growth inhibition came out at 7.95%.

On to `COP(=O)(OC)OC(Br)C(Cl)(Cl)Br` (centres undefined), for which the growth inhibition is -2.41%.

Regarding `COc1cc2c(cc1OC)[C@@]13CCN4CC5=CCO[C@H]6CC(=O)N2[C@H]1[C@H]6[C@H]5C[C@H]43`, the growth inhibition is -6.41%.

For the compound `CC(C)(C)NCC(O)c1cc(Cl)c(N)c(Cl)c1` (centres undefined), the growth inhibition was -8.03%.

Take `C=C(C)[C@H]1Cc2c(ccc3c2O[C@@H]2COc4cc(OC)c(OC)cc4[C@@H]2C3=O)O1`: the growth inhibition worked out at 3.56%.

As to `COC(=O)C1=CCCN(C)C1`, the growth inhibition was -34.1%.

Consider `NCC(CC(=O)O)c1ccc(Cl)s1` (centres undefined), for which the growth inhibition is -40.2%.

`CCC1(c2ccc(N)cc2)CCC(=O)NC1=O` (centres undefined): the growth inhibition is -5.92%.

Take `C[C@@H](N)[C@@H](O)c1ccccc1`: the growth inhibition is -18.3% and -14.8%.

Turning to `COc1cc2c(cc1OC)[C@@H]1C(=O)c3ccc(O)c(CC=C(C)C)c3O[C@@H]1CO2`, the growth inhibition is -4.6%.

Regarding `NCCc1ccc(O)cc1`, the growth inhibition was -40.6%.

In the case of `C[C@]12CC[C@H](O)C[C@@H]1CC[C@@H]1[C@@H]2CC[C@]2(C)C(=O)CC[C@@H]12`, the growth inhibition was -0.395%.

On to `C[N+]1(C)[C@@H]2C[C@@H](OC(=O)[C@H](CO)c3ccccc3)C[C@H]1[C@@H]1O[C@@H]12`, for which the growth inhibition was 8.34%.

With `CCn1cc(C(=O)O)c(=O)c2cc3c(cc21)OCO3`, the growth inhibition was -4.73%.

As to `CO[C@H]1C[C@H](O[C@H]2CC[C@]3(C=O)[C@H]4CC[C@]5(C)[C@@H](C6=CC(=O)OC6)CC[C@]5(O)[C@@H]4CC[C@]3(O)C2)O[C@H](C)[C@H]1O`, the growth inhibition is -10.4%.

As for `CC1(C)C2C[C@@H](O)[C@]3(C)C(CC[C@@]4(C)[C@H](c5ccoc5)OC(=O)[C@H]5O[C@]543)[C@@]2(C)[C@@H](O)C[C@H]1O` (some centres undefined), the growth inhibition was -12.6%.

`C[C@@H]1O[C@@H](O[C@H]2C[C@@H](O)[C@]3(CO)[C@H]4[C@H](O)C[C@]5(C)[C@@H](C6=CC(=O)OC6)CC[C@]5(O)[C@@H]4CC[C@]3(O)C2)[C@H](O)[C@H](O)[C@H]1O`: the growth inhibition was -9.73%.

As for `COc1ccc2c3c([nH]c2c1)C(C)=NCC3`, the growth inhibition was -7.88%.

Regarding `CCOP(=S)(OCC)SCCSCC`, the growth inhibition was -16.7%.

On to `C[C@]12C=CC(=O)C=C1CC[C@@H]1[C@@H]2CC[C@]2(C)C(=O)CC[C@@H]12`, for which the growth inhibition was -2.37%.

On to `CCN1C[C@]2(COC)[C@H](O)C[C@H](OC)[C@@]34[C@@H]5C[C@@]6(O)[C@H](OC(=O)c7ccccc7)[C@@H]5[C@@](OC(C)=O)([C@@H]([C@H](OC)[C@H]23)[C@@H]14)[C@@H](O)[C@@H]6OC`, for which the growth inhibition is -28.4%.

For `CC(=O)CC1CCCCN1` (centres undefined), the growth inhibition amounted to 8.36%.

As for `CC[C@@]1(O)C[C@H](O[C@H]2C[C@H](N(C)C)[C@H](O)[C@H](C)O2)c2c(cc3c(c2O)C(=O)c2c(O)ccc(O)c2C3=O)[C@H]1C(=O)OC`, the growth inhibition was -2.83%.

With `O=[N+]([O-])c1cc([As](=O)(O)O)ccc1O`, the growth inhibition came out at 6.25%.

Take `CC(=O)C1CCC2C3CCC4C[C@H](O)CCC4(C)C3C[C@H](O)C12C` (stereo partly drawn) [DIHYDROXY (3alpha,12alpha)PREGNAN-20-ONE]: the growth inhibition was found to be 3.07%.

`CCc1cccc(CC)c1N(COC)C(=O)CCl`: the growth inhibition was -2.26%.

On to `CC(=O)Oc1ccc(Cl)c2cccnc12`, for which the growth inhibition is 86.6%.

For `C=C(C)[C@@H]1[C@H]2OC(=O)[C@@H]1[C@]1(O)C[C@H]3O[C@]34C(=O)O[C@H]2[C@]14C`, the growth inhibition was -29.9%.

On to `Oc1ccc(Cl)cc1`, for which the growth inhibition was -19.4%.

Consider `CNC(=O)Oc1cccc2c1OC(C)(C)O2`, for which the growth inhibition is -6.22%.

As for `COS(C)(=O)=O`, the growth inhibition was -17.6%.

For the compound `CC(=O)OC1CCC23C(=O)OC45CCC(C6=CC(=O)OC6)C4(C)CCC2C5CCC3(O)C1` (centres undefined), the growth inhibition worked out at 2.44%.

In the case of `CCCCN(CC)c1c([N+](=O)[O-])cc(C(F)(F)F)cc1[N+](=O)[O-]`, the growth inhibition is -6.22%.

For the compound `NC(=O)CN1CCCC1=O`, the growth inhibition was -13.4%.

For the compound `CC1(C)C(O)CC(O)C2(C)C1CC(O)C1(C)C2CCC2(C)C(c3ccoc3)CC3OC321` (centres undefined), the growth inhibition was -11.5%.

In the case of `CC1C[C@H]2CC(=O)[C@H]3CCCN4CCC[C@H]2[C@]34C1.[O-][Cl+3]([O-])([O-])O` (some centres undefined), the growth inhibition was -14%.

As to `COc1cc([C@@H]2c3cc4c(c(O)c3C[C@H]3COC(=O)[C@@H]32)OCO4)cc(OC)c1OC` [beta-PELTATIN], the growth inhibition was 12.4%.

Take `C[C@]12CC[C@H](O)C[C@H]1CC[C@@H]1[C@@H]2[C@H](O)C[C@]2(C)[C@@H](C3=CC(=O)OC3)CC[C@]12O`: the growth inhibition was -10.4%.

Consider `CC(=O)c1c(O)c(C)c(O)c2c1oc1c(C(C)=O)c(O)c(C)c(O)c12`, for which the growth inhibition is -15.8%.

For `Clc1ccc(C(OCCN2CCCCC2)c2ccccc2)cc1` (centres undefined), the growth inhibition is -8.54%.

In the case of `CCCSP(=O)(OCC)SCCC`, the growth inhibition was -7.44%.

Take `NCCc1c[nH]c2ccccc12`: the growth inhibition was -12.3%.

On to `C[C@]12CC[C@H](O)C[C@H]1CC[C@@H]1[C@@H]2C[C@@H](O)[C@]2(C)[C@@H](C3=CC(=O)OC3)CC[C@]12O`, for which the growth inhibition is -3.64%.

As for `ClC1=C(Cl)C2(Cl)C3C4C=CC(C4)C3C1(Cl)C2(Cl)Cl` (centres undefined), the growth inhibition was -5%.

With `C[C@]12CCC3C(CC[C@H]4C[C@H](O)CC[C@]34C)C1CC[C@@H]2O` (some centres undefined), the growth inhibition is -1.75%.

The values above are taken from the supplement of paper PMC3047530.
